Measurements from the supplement of paper PMC5949888.
± gives the standard deviation of the averaged measurements. Most values lie at the floor of the assay. Slopes are relative: functional sequences can read slightly below zero.

tested on: Saccharomyces cerevisiae PS128 hsf1 delta, HSF1(1-493) fusion; test: growth estimate (transactivation domain function in HSF1 fusion, heat-shock survival) (a.u. (slope of normalised read count over time)); higher = stronger growth at 37°C, i.e. more transactivation activity; conditions: library: random library
Experimental: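 Random 60-nt DNA library encoding peptides of up to 20 aa, fused to the C-terminus of yeast HSF1 residues 1-493 (C-terminal TAD deleted) and expressed from the native HSF1 promoter on a CEN plasmid in hsf1-deleted S. cerevisiae PS128. Cells were selected at 37°C on -trp 5-FOA plates for 0, 2, 4, 6 and 8 days and amplicons were sequenced. Growth estimate is the slope of a robust linear fit of total-sum-normalised read counts (normalised to the first time point) over time, using at least 2 replicates. Sequences are classed functional (TAD activity) above a threshold of -0.13, set from stop-codon control sequences.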

Substance	growth estimate
EQLIQRCRALITPSALQSLE	< -0.25
EQPIFPPRPVCMNSGFITHH	< -0.25
EQPNN	< -0.25
EQPNTHQRERWVMLTFSVVS	< -0.25
EQRGV	< -0.25
EQSACSGQR	< -0.25
EQSASNGADQGPRSRR	< -0.25
EQSCPK	< -0.25
EQVPSSRVHASSPPKN	< -0.25
ERCLVTRRSHIHLTLTSLLL	< -0.25
ERELMV	< -0.25
ERFAG	< -0.25
ERFYGSDPRWKGGQKGQQGR	< -0.25
ERGRSGRCSVRCS	< -0.25
ERGTCYHGAALLEKNKSYSR	< -0.25
ERIASLKGRV	< -0.25
ERIYYL	< -0.25
ERKRALRYYRIKGISCRVST	< -0.25
ERKRRPEGIPRLSLAGSVHM	< -0.25
ERL	-0.248 ± 0.003
ERMVTQ	< -0.25
ERPPPCSSGGHVRHRSSVRD	< -0.25
ERQGHSARIRQPAHSIILGC	0.116
ERRLSRG	< -0.25

Substance	growth estimate
ERRMSMPLGGHMRFAYRP	< -0.25
ERSHGC	< -0.25
ERSQLLSSIR	< -0.25
ERTIRLEVMRTYC	< -0.25
ERTPET	< -0.25
ERTRQGYDP	< -0.25
ERTTMFQTLFSRNPQDTCEA	< -0.25
ERVFSTYHDGALRPALAYGA	< -0.25
ERYISKC	< -0.25
ESAADLWINYV	< -0.25
ESANYGLHGGLPDRWKTTAR	< -0.25
ESCEEIEHWARGGPCTQPHS	< -0.25
ESDR	< -0.25
ESGCNLSFRQNVAPRGGVSP	< -0.25
ESGFCDSGNETVFTLSLIGY	< -0.25
ESGHAGGPVVPGPTRRFLWG	< -0.25
ESGYLTRENSVVK	< -0.25
ESHRGSRSPTTKEPDNYRC	< -0.25
ESILIIGF	< -0.25
ESIPLEEMVGDLY	< -0.25
ESLGPTIDLWAGVQLSGGAR	< -0.25
ESLRSPVYDECEVWTI	< -0.25
ESLSRSH	< -0.25
ESNLFTWIIRYSLKGKIPPF	< -0.25

A few values from the entries so far:
ERL | growth estimate: -0.248 ± 0.003
ERSQLLSSIR | growth estimate: < -0.25

The list continues:

Substance	growth estimate
ESPLDLITRSAGAACGWGTA	< -0.25
ESQAMHFGAISPPSMFFCPG	< -0.25
ESQDLSNNFSSHWSPPRRKA	< -0.25
ESQVRCHLKTASLIPNDS	< -0.25
ESRDFVPTREATIG	< -0.25
ESRIVVQAVSRLHGTINLIQ	< -0.25
ESRVMIIVGPQRRLHSVMPE	< -0.25
ESSPRQDACLITGNLSNLGT	< -0.25
ESSR	< -0.25
ESSRVCTIDLLFETPA	< -0.25
ESSSGGVCNGLTK	< -0.25
ESVRWNEEGRHFSRRVNE	< -0.25
ESYPWVCSDSTDTVWGLSTK	< -0.25
ETAS	< -0.25
ETCENPL	< -0.25
ETDFRYRLLAGDRL	< -0.25
ETGDRFRHCTE	< -0.25
ETGFGGVQ	< -0.25
ETGHVFRWLKSLRWRRSSTS	< -0.25
ETGRIVACLKVRSAQWPYWV	< -0.25
ETHYGV	< -0.25
ETIQKVQSCRTFATGTPVGR	< -0.25
ETKYGR	< -0.25
ETLERTMKAHCRNAWDAIGS	< -0.25

Retrieved one by one from the entries so far (three):
Substance	growth estimate
ESQDLSNNFSSHWSPPRRKA	< -0.25
ESQAMHFGAISPPSMFFCPG	< -0.25
ETCENPL	< -0.25

Continuation:

Substance	growth estimate
ETLHSV	< -0.25
ETLNR	< -0.25
ETPATLNMS	-0.243
ETQMVRSECWNYCYRQRISG	< -0.25
ETSKAQSTKGAAALTVNCMD	< -0.25
ETYEGHAVFHHLRIAGAKSW	< -0.25
EVAVYSTRLSFAEIREPPRA	< -0.25
EVDCWGLCRSAADRHDLPTV	< -0.25
EVDGPRQFNLG	< -0.25
EVECVPLGYGVPGRWQW	< -0.25
EVFNGRTRSWCCLGPVPSGY	< -0.25
EVFQEIHGVISKNSAIVVRS	< -0.25
EVFRITRQDYSTSAYDEARR	-0.0563
EVGLGALRDFKCEFKLEFAG	< -0.25
EVGLYEPFRAMHFSLED	< -0.25
EVGRMLAGRQVSSLQAGGCA	< -0.25
EVGSVTLVLLAYPSSLAFTS	< -0.25
EVIIGYDRSTRETLA	< -0.25
EVIRSKS	< -0.25
EVKMPLLVPSAMQGCDDCHD	-0.246
EVLALPRREDAMR	< -0.25
EVLKVTVILVRDLILRFTPT	< -0.25
EVLYRVGYKSIACVRRLPSY	< -0.25
EVNSSLDVTREIAPDCRENR	< -0.25
